Reference: paper PMC9173638 (PLoS Genetics, 2022)

Tested on: ComR
Assay: EMSA
Conditions: sXIP, twofold dilutions up to 6 uM, ComR 3 uM; 20 mM Tris-HCl pH 8.0, 150 mM NaCl, 1 mM EDTA, 10% glycerol, 1 mg/mL BSA, 37 C 10 min; 20 ng probe in 20 uL; native 4-20% gel in Tris-MOPS pH 7.7; recombinant protein; protein details: C-terminal StrepTag; label: Cy3 at 5' end of strand 1

TTTTATAGTGACATATATGTCGCTATTTTA (double strand) [PcomX ComR box 30-bp probe]
binding result: binds

The exact form of at least one protein or probe is not confirmed. At least one verdict rests on a figure or table, not on a statement of the authors.
